The supplement of paper PMC10849652
The other results are listed elsewhere or left out.

By UniProt entry, the sequences of proteins in these tests, tags left out. Where a name states a change or a piece, a line headed by the entry shows the natural chain unless it says otherwise.
UniProt P17028: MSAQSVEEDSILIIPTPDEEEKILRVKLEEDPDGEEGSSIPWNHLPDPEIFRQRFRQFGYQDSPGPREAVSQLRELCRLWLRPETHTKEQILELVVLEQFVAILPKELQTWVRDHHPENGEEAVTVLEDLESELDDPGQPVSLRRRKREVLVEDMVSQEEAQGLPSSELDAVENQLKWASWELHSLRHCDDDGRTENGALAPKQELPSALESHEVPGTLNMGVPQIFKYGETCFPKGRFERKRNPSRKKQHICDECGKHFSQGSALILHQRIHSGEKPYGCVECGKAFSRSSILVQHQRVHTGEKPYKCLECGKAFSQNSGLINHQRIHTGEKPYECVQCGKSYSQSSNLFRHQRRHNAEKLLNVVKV
UniProt Q9ULJ6: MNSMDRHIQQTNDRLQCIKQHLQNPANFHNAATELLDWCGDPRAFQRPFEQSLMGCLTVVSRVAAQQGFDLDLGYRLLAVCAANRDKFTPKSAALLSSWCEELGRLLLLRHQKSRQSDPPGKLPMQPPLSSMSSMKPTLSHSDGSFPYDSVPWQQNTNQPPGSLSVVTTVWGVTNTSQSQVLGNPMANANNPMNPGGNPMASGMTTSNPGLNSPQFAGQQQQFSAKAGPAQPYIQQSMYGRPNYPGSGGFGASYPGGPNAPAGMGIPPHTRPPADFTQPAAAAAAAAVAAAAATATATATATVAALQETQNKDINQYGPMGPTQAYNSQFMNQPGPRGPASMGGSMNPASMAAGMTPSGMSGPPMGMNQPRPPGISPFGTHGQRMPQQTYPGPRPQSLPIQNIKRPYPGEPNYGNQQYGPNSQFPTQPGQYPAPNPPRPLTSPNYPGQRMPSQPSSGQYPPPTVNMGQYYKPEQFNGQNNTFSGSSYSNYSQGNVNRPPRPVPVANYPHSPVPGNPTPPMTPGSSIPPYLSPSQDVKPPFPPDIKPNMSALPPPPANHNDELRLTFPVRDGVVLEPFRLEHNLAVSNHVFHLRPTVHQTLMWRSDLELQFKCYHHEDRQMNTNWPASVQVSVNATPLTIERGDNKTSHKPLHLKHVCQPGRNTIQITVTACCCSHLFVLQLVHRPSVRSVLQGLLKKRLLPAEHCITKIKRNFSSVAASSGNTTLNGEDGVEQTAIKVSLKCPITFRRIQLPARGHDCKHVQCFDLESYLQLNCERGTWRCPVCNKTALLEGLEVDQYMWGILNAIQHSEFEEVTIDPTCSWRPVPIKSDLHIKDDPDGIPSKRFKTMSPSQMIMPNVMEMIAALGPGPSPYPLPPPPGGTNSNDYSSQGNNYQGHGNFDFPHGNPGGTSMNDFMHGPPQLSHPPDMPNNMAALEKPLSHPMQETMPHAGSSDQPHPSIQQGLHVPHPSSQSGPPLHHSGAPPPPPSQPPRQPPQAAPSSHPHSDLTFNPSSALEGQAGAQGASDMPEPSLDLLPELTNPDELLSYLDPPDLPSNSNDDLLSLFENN
UniProt Q5VUA4: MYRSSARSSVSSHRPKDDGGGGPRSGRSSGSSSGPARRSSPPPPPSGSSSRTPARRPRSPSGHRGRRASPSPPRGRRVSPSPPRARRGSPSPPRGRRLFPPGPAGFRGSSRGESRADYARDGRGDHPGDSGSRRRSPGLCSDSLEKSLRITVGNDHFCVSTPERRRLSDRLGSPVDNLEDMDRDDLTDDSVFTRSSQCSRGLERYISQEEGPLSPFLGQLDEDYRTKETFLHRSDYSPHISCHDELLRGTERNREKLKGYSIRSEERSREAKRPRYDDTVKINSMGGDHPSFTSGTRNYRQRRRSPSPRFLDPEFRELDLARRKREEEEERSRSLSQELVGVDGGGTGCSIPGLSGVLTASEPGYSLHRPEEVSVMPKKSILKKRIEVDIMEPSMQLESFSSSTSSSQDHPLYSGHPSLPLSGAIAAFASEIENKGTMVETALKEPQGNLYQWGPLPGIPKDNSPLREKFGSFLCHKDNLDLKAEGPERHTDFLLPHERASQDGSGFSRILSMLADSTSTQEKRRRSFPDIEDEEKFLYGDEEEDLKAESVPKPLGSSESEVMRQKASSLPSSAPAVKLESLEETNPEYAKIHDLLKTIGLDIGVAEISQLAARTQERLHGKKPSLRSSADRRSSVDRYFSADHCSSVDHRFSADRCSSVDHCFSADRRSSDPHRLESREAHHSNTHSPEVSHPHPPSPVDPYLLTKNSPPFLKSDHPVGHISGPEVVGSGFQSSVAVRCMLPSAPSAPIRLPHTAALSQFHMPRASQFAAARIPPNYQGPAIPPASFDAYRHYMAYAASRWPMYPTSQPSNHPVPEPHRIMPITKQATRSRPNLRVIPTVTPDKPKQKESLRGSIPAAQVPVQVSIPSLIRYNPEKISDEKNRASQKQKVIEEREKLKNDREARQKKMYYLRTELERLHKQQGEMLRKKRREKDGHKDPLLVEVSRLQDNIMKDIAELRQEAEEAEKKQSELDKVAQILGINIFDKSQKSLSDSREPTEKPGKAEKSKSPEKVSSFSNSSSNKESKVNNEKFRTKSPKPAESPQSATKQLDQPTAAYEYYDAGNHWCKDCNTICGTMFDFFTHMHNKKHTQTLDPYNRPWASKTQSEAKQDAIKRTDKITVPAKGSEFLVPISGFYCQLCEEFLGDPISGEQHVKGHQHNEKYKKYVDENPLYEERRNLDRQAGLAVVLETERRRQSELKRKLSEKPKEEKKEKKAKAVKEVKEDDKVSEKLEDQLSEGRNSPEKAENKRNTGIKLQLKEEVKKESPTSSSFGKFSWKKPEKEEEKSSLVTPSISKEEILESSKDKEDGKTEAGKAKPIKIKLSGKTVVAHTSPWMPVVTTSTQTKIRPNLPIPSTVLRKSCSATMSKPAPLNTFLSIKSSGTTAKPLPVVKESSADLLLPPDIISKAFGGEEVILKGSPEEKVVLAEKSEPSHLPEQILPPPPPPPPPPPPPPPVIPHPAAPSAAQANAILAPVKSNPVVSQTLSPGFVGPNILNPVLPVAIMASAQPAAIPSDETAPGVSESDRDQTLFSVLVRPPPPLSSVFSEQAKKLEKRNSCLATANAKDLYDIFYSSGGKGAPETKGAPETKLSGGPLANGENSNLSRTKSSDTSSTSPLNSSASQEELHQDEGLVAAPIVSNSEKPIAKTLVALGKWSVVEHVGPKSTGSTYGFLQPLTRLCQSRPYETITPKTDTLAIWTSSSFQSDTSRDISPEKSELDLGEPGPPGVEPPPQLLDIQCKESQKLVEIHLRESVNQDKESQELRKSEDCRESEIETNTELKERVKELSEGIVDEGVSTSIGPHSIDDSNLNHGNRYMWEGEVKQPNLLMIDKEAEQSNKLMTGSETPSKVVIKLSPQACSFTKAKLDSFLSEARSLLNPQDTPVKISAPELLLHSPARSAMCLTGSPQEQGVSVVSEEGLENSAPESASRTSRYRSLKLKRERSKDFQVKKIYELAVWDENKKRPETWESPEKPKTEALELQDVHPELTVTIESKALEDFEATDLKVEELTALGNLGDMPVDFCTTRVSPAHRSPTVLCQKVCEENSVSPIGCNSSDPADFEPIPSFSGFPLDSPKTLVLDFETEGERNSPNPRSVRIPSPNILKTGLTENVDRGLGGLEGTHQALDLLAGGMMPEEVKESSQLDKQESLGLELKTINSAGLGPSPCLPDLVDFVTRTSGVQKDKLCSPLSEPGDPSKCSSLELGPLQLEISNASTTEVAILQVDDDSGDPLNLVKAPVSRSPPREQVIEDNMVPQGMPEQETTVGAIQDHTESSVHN
UniProt Q6ZMS4: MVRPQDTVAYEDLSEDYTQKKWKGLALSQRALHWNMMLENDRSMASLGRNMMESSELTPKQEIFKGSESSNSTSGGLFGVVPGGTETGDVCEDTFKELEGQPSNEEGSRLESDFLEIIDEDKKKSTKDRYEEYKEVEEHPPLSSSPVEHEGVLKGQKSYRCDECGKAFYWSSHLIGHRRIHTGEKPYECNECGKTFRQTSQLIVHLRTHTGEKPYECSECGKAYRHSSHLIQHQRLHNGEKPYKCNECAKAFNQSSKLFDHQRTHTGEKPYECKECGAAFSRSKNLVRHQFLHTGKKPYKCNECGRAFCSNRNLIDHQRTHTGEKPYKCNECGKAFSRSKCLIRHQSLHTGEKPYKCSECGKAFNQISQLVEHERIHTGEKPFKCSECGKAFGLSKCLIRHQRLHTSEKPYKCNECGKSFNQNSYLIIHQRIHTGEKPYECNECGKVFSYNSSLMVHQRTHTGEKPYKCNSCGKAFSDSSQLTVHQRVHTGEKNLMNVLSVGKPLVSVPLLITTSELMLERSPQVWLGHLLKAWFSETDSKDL
UniProt Q6ZN55: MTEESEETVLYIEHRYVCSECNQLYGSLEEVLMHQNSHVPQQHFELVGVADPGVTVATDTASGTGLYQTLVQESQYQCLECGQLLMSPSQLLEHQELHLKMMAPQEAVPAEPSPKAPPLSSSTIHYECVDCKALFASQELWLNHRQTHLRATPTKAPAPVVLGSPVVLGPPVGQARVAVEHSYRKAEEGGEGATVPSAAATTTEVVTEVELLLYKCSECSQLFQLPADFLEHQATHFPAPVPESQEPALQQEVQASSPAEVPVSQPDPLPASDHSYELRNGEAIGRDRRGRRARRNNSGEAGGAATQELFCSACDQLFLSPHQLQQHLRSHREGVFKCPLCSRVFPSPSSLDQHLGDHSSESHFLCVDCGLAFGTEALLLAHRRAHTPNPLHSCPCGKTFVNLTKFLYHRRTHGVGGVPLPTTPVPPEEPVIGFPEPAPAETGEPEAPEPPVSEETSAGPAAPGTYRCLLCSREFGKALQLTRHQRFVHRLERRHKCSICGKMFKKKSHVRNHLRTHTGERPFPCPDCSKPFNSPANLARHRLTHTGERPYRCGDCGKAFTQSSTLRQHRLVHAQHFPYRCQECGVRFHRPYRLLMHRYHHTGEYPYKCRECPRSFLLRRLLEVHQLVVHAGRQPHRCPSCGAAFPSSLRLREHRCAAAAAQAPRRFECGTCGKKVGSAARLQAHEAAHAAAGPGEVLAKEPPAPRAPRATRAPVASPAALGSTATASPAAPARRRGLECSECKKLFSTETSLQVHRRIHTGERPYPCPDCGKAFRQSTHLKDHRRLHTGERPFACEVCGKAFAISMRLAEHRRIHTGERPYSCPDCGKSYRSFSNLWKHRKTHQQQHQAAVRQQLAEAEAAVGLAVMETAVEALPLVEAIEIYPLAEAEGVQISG
UniProt O75467: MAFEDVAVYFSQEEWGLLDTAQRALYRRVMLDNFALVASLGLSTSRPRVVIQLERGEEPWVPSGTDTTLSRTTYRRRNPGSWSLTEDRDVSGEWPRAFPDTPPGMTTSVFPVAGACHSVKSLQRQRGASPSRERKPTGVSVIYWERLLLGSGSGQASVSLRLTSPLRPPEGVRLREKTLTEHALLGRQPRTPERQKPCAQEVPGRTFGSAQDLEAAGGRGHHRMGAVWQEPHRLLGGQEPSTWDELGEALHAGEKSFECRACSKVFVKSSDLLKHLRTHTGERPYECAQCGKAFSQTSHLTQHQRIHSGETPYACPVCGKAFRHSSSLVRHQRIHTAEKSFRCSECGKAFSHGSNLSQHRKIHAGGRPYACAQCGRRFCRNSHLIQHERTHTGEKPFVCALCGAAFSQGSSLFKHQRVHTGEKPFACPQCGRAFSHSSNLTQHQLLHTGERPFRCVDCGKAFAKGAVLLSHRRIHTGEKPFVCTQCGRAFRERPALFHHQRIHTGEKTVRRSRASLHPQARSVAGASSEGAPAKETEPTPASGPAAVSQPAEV
UniProt Q7L3S4: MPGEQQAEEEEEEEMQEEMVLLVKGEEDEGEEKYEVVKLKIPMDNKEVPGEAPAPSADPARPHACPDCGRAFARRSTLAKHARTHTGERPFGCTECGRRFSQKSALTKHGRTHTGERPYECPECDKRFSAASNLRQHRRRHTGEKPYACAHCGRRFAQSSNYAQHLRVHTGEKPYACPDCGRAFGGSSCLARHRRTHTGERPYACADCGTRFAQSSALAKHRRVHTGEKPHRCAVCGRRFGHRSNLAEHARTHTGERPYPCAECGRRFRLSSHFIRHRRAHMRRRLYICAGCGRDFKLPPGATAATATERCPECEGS
UniProt Q8NHG8: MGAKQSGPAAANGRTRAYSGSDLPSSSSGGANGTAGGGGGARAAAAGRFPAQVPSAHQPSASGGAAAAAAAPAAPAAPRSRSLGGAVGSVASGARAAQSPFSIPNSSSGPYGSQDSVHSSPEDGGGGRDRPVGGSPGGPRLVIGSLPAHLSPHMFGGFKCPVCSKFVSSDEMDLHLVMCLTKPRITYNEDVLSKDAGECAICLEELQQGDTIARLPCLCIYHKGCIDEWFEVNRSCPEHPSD
UniProt Q5VV52: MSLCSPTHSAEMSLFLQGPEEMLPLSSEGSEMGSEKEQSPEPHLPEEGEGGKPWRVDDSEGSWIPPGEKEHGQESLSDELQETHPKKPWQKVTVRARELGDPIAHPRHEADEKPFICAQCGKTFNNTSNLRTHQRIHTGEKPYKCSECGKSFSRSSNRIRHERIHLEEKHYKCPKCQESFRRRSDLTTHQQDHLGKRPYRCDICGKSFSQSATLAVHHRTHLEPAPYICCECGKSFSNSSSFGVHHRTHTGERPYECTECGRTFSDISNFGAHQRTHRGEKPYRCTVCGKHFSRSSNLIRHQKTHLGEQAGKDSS

Legend:
Assay in all cases: log2 fold change, soluble protein after heating vs DMSO (PISA); higher = thermal stabilisation; K562 lysate, 10 uM; active = over 0.2 and 3.5 SD of the protein, either way, in both replicates (recomputed)
lapatinib = compound: CS(=O)(=O)CCNCc1ccc(-c2ccc3ncnc(Nc4ccc(OCc5cccc(F)c5)c(Cl)c4)c3c2)o1 [lapatinib]
Outline: (§1)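 Soluble protein was defined as the supernatant remaining after 21,000xg for 90 min, following pooling of heated aliquots and adjustment to 0.5% NP-40 at 4°C. Before that, crude K562 extract at 1 mg/mL protein in PBS pH 7.4 with 1 mM MgCl2 was treated with 10 μM compound for 30 min and heated for 3 min across 48°C-58°C. Quantification used TMTpro 16plex LC-MS/MS with channel sums equalised, and values are log-two fold changes in thermal stability relative to solvent controls from duplicates.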

pictilisib = compound: CS(=O)(=O)N1CCN(Cc2cc3nc(-c4cccc5[nH]ncc45)nc(N4CCOCC4)c3s2)CC1 [pictilisib]
Outline: as §1

crizotinib = compound: C[C@@H](Oc1cc(-c2cnn(C3CCNCC3)c2)cnc1N)c1c(Cl)ccc(F)c1Cl [crizotinib]
Outline: as §1

[1] = compound: C[C@H](C1=CC=C(C=C1)C(=O)NC2=C3C=CNC3=NC=C2)N
Outline: as §1

duvelisib = compound: C[C@H](Nc1ncnc2nc[nH]c12)c1cc2cccc(Cl)c2c(=O)n1-c1ccccc1 [duvelisib]
Outline: as §1

gandotinib = compound: Cc1cc(Nc2cc(CN3CCOCC3)c3nc(C)c(Cc4ccc(Cl)cc4F)n3n2)n[nH]1 [gandotinib]
Outline: as §1

tozasertib = compound: Cc1cc(Nc2cc(N3CCN(C)CC3)nc(Sc3ccc(NC(=O)C4CC4)cc3)n2)n[nH]1 [tozasertib]
Outline: as §1

doramapimod = compound: Cc1ccc(-n2nc(C(C)(C)C)cc2NC(=O)Nc2ccc(OCCN3CCOCC3)c3ccccc23)cc1 [doramapimod]
Outline: as §1

bafetinib = compound: Cc1ccc(NC(=O)c2ccc(CN3CC[C@H](N(C)C)C3)c(C(F)(F)F)c2)cc1Nc1nccc(-c2cncnc2)n1 [bafetinib]
Outline: as §1

[2] = compound: Cc1cccc(CC(=O)N2CCc3c2ccc(-c2cn(C)c4ncnc(N)c24)c3F)n1
Outline: as §1

nilotinib = compound: Cc1cn(-c2cc(NC(=O)c3ccc(C)c(Nc4nccc(-c5cccnc5)n4)c3)cc(C(F)(F)F)c2)cn1 [nilotinib]
Outline: as §1

[3] = compound: Cc1nc(Nc2n[nH]c3c2CN(C(=O)N[C@H](CN(C)C)c2ccccc2)C3(C)C)c2sccc2n1
Outline: as §1

dasatinib = compound: Cc1nc(Nc2ncc(C(=O)Nc3c(C)cccc3Cl)s2)cc(N2CCN(CCO)CC2)n1 [dasatinib]
Outline: as §1

[4] = compound: Cc1ncc(-c2ccnc(Nc3ccc(S(C)(=O)=O)cc3)n2)n1C(C)C
Outline: as §1

[5] = compound: Cn1cc(-c2ccc3c(c2)CCN3C(=O)Cc2cccc(C(F)(F)F)c2)c2c(N)ncnc21
Outline: as §1

quisinostat = compound: Cn1cc(CNCC2CCN(c3ncc(C(=O)NO)cn3)CC2)c2ccccc21 [quisinostat]
Outline: as §1

tipifarnib = compound: Cn1cncc1[C@@](N)(c1ccc(Cl)cc1)c1ccc2c(c1)c(-c1cccc(Cl)c1)cc(=O)n2C [tipifarnib]
Outline: as §1

[6] = compound: NC(=O)Nc1cc(-c2cccc(F)c2)sc1C(=O)N[C@H]1CCCNC1
Outline: as §1

[7] = compound: NC(=O)c1cnc(N[C@@H]2CCCC[C@@H]2N)nc1Nc1cccc(-n2nccn2)c1
Outline: as §1

[8] = compound: NC1(c2ccc(-c3nc4ccn5c(=O)[nH]nc5c4cc3-c3ccccc3)cc2)CCC1
Outline: as §1

Measured: log2 fold change

ZNF24 (UniProt P17028)
inactive: lapatinib 0.079 | pictilisib -0.045 | crizotinib -0.005 | [1] 0.026 | duvelisib -0.04 | gandotinib -0.07 | tozasertib 0.006 | doramapimod 0.085 | bafetinib 0.045 | [2] -0.035 | nilotinib 0.036 | [3] -0.144 | dasatinib 0.038 | [4] 0.098 | [5] 0.012 | quisinostat -0.009 | tipifarnib -0.011 | [6] 0.017 | [7] 0.001 | [8] 0.051

ZMIZ1 (UniProt Q9ULJ6)
inactive: lapatinib 0.012 | pictilisib -0.031 | crizotinib 0.025 | [1] -0.177 | duvelisib -0.025 | gandotinib 0.04 | tozasertib -0.011 | doramapimod 0.021 | bafetinib -0.029 | [2] 0.091 | nilotinib -0.018 | [3] 0.018 | dasatinib -0.002 | [4] -0.011 | [5] -0.004 | quisinostat -0.044 | tipifarnib -0.004 | [6] 0.031 | [7] -0.009 | [8] -0.012

ZNF318 (UniProt Q5VUA4)
inactive: lapatinib 0.031 | pictilisib 0.059 | crizotinib 0.023 | [1] -0.008 | duvelisib 0.046 | gandotinib -0.021 | tozasertib -0.019 | doramapimod -0.01 | bafetinib -0.086 | [2] 0.112 | nilotinib 0.043 | [3] -0.05 | dasatinib -0.104 | [4] -0.034 | [5] -0.002 | quisinostat 0.088 | tipifarnib -0.065 | [6] -0.004 | [7] -0.078 | [8] -0.028

ZNF787 (UniProt Q6DD87)
inactive: lapatinib -0.069 | pictilisib 0.004 | crizotinib 0.024 | [1] 0.014 | duvelisib -0.02 | gandotinib 0.146 | tozasertib 0.023 | doramapimod -0.058 | bafetinib 0.031 | [2] -0.021 | nilotinib -0.028 | [3] 0.113 | dasatinib -0.04 | [4] 0.17 | [5] -0.047 | quisinostat 0.069 | tipifarnib 0.033 | [6] 0.023 | [7] -0.044 | [8] 0.053

ZNF852 (UniProt Q6ZMS4)
inactive: lapatinib 0.142 | crizotinib 0.132 | [1] 0.056 | gandotinib 0.07 | doramapimod -0.066 | [2] 0.136 | quisinostat -0.14 | [6] -0.138 | [7] 0.11 | [8] -0.058

ZNRD2 (UniProt G3V1B8)
inactive: lapatinib 0.169 | pictilisib -0.07 | crizotinib -0.005 | [1] -0.061 | duvelisib 0.005 | gandotinib 0.235 | tozasertib 0.109 | doramapimod 0.04 | bafetinib 0.014 | [2] 0.255 | nilotinib 0.115 | [3] -0.064 | dasatinib 0.087 | [4] 0.275 | [5] -0.019 | quisinostat -0.191 | tipifarnib -0.076 | [6] -0.034 | [7] -0.011 | [8] -0.028

Fetched one by one from the list above (2):
ZNF787 (UniProt Q6DD87)
inactive: lapatinib -0.069 | pictilisib 0.004 | crizotinib 0.024 | [1] 0.014 | duvelisib -0.02 | gandotinib 0.146 | tozasertib 0.023 | doramapimod -0.058 | bafetinib 0.031 | [2] -0.021 | nilotinib -0.028 | [3] 0.113 | dasatinib -0.04 | [4] 0.17 | [5] -0.047 | quisinostat 0.069 | tipifarnib 0.033 | [6] 0.023 | [7] -0.044 | [8] 0.053

ZMIZ1 (UniProt Q9ULJ6)
inactive: lapatinib 0.012 | pictilisib -0.031 | crizotinib 0.025 | [1] -0.177 | duvelisib -0.025 | gandotinib 0.04 | tozasertib -0.011 | doramapimod 0.021 | bafetinib -0.029 | [2] 0.091 | nilotinib -0.018 | [3] 0.018 | dasatinib -0.002 | [4] -0.011 | [5] -0.004 | quisinostat -0.044 | tipifarnib -0.004 | [6] 0.031 | [7] -0.009 | [8] -0.012

Following part

ZNF207 isoform 4 (UniProt O43670)
inactive: lapatinib -0.008 | pictilisib -0.058 | crizotinib 0.03 | [1] 0.002 | duvelisib -0.036 | gandotinib 0.03 | tozasertib -0.041 | doramapimod -0.053 | bafetinib -0.021 | [2] -0.086 | nilotinib 0.009 | [3] 0.058 | dasatinib 0.008 | [4] 0.024 | [5] 0.003 | quisinostat -0.091 | tipifarnib -0.008 | [6] 0.04 | [7] -0.022 | [8] -0.014

ZNF574 isoform 2 (UniProt Q6ZN55)
inactive: lapatinib 0.045 | pictilisib -0.052 | crizotinib -0.013 | [1] -0.037 | gandotinib 0 | tozasertib 0.109 | doramapimod -0.084 | bafetinib 0.068 | [2] 0.059 | nilotinib -0.107 | [3] 0.02 | [4] -0.034 | quisinostat -0.232 | tipifarnib 0.019 | [6] 0.235 | [7] -0.054 | [8] -0.048

ZNF324 (UniProt O75467)
inactive: lapatinib 0.382 | crizotinib -0.078 | [1] -0.097 | gandotinib -0.091 | doramapimod 0.007 | [2] 0.163 | nilotinib 0.065 | [3] -0.055 | [4] -0.159 | quisinostat 0.108 | tipifarnib 0.155 | [6] -0.051 | [7] -0.011

ZNF618 (UniProt B1ALC2)
inactive: lapatinib -0.013 | crizotinib -0.055 | [1] -0.06 | duvelisib -0.01 | gandotinib -0.017 | tozasertib -0.055 | doramapimod 0.076 | [2] 0.13 | nilotinib 0.039 | [3] -0.043 | dasatinib -0.126 | [4] 0.098 | [5] 0.02 | quisinostat -0.139 | tipifarnib -0.069 | [6] 0.008 | [7] 0.046

ZNF771 (UniProt Q7L3S4)
inactive: lapatinib 0.03 | pictilisib -0.083 | [1] 0.057 | gandotinib -0.051 | bafetinib -0.033 | [2] -0.01 | [7] 0.025 | [8] -0.222

ZHX3 (UniProt Q9H4I2)
inactive: lapatinib -0.041 | pictilisib -0.111 | [1] 0.027 | duvelisib 0.086 | gandotinib 0.158 | bafetinib 0 | [2] 0.126 | nilotinib 0.055 | [3] 0.045 | dasatinib -0.128 | [4] 0.024 | [5] 0.136 | tipifarnib 0.068 | [7] -0.048

ZNF346 (UniProt Q9UL40)
inactive: lapatinib 0.01 | pictilisib -0.008 | crizotinib 0.009 | [1] -0.01 | duvelisib -0.009 | gandotinib -0.026 | tozasertib 0.005 | doramapimod 0.02 | bafetinib -0.043 | [2] -0.072 | nilotinib -0.005 | [3] 0.02 | dasatinib -0.099 | [4] 0.021 | [5] 0.014 | quisinostat -0.014 | tipifarnib 0.015 | [6] 0.005 | [7] 0.011 | [8] 0.01

ZNF592 (UniProt Q92610)
inactive: lapatinib 0.051 | pictilisib -0.06 | crizotinib -0.062 | [1] 0.053 | duvelisib 0.046 | gandotinib -0.122 | tozasertib -0.019 | doramapimod 0.14 | bafetinib -0.25 | [2] 0.122 | dasatinib -0.046 | [5] 0.012 | quisinostat -0.16 | [6] 0.165 | [7] -0.08 | [8] -0.094

ZNRF2 (UniProt Q8NHG8)
inactive: lapatinib 0.055 | pictilisib 0.155 | crizotinib 0.028 | [1] 0.054 | gandotinib 0 | tozasertib 0.06 | doramapimod 0.168 | bafetinib 0.014 | [2] -0.15 | nilotinib 0.079 | [3] 0.035 | [4] 0.095 | quisinostat -0.084 | tipifarnib -0.147 | [6] 0 | [7] -0.145

ZNF672 (UniProt Q499Z4)
inactive: lapatinib -0.019 | pictilisib 0.016 | crizotinib 0.046 | [1] 0.117 | duvelisib -0.074 | gandotinib -0.209 | tozasertib -0.023 | doramapimod -0.054 | bafetinib -0.078 | [2] -0.069 | nilotinib -0.038 | [3] 0.031 | dasatinib 0.232 | [4] 0.054 | [5] 0.035 | quisinostat 0.005 | tipifarnib -0.036 | [6] 0.028 | [7] 0.017 | [8] 0.027

ZNF654, A0A1B0GWA0
inactive: lapatinib -0.039 | pictilisib -0.047 | crizotinib -0.053 | [1] -0.124 | gandotinib -0.075 | doramapimod 0.127 | bafetinib -0.042 | [2] 0.102 | nilotinib 0.047 | [3] -0.071 | [4] 0.112 | quisinostat -0.114 | tipifarnib -0.191 | [6] 0.109 | [7] -0.001 | [8] 0.068

ZNF207 isoform 2 (UniProt O43670)
inactive: lapatinib -0.001 | pictilisib 0.029 | crizotinib -0.188 | duvelisib 0.088 | tozasertib -0.163 | doramapimod 0.073 | bafetinib 0.049 | nilotinib -0.07 | [3] 0.072 | dasatinib -0.038 | [4] 0.012 | [5] -0.139 | quisinostat -0.27 | tipifarnib 0.022 | [6] -0.066 | [7] -0.072 | [8] 0.028

ZNF691 (UniProt Q5VV52)
inactive: lapatinib -0.035 | pictilisib -0.071 | crizotinib 0.089 | [1] -0.115 | duvelisib 0 | gandotinib 0.073 | tozasertib 0.186 | doramapimod -0.148 | bafetinib 0.072 | [2] 0.016 | dasatinib -0.002 | [5] -0.042 | quisinostat 0.145 | [6] 0.014 | [7] -0.017
